# Measured values: PubChem BioAssay AID493014 (National Center for Advancing Translational Sciences (NCATS), 2011)
# This is one part of the list. Further columns of the screen follow, without active or inactive calls. The list favours compounds with an active or inconclusive main result. Potencies come from curve fits of mixed quality, noted in brackets.
# Assay: qHTS Assay to Find Inhibitors of Chronic Active B-Cell Receptor Signaling
# Conditions: ABC-DLBCL IkBa-CBG/CBR reporter, luminescence ratio (green luciferase fused to IkBa over red control in TMD8 lymphoma cells), 4 h
# Procedure, shortened: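 TMD8 human ABC-DLBCL cells with doxycycline-inducible IκBα–green luciferase fusion and unfused red luciferase, in 0.5% FBS medium; compounds up to 46 uM, 4 h at 37C. Green/red luminescence ratio, filter-overlap corrected, fitted to concentration-response curves.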
# [1] = measured here: CBR red luminescence, cell number
# [2] = measured here: IkBa-CBG green luminescence
SMILES,AC50 [1],AC50 [2]
Cc1cc(C(=O)COC(=O)c2ccc(O)cc2)c(C)n1CC1COc2ccccc2O1 (configuration not stated),"23.1 µM [falling, single point]",–
COc1ccc(C(c2c(C)[nH][nH]c2=O)c2c(C)[nH][nH]c2=O)cc1Br,"15.8 µM [falling, single point]",–
CCOC(=O)c1c(CN2CCN(C)CC2)oc2ccc(O)cc12,"20 µM [falling, single point]",–
Cc1ccc(S(=O)(=O)N2CCCCC2)cc1NC(=O)c1cncc(Br)c1,"0.366 µM [rising, partial curve, poor fit]",–
COc1ccc(C)cc1S(=O)(=O)Nc1cc2c3c(c1)C(C)C(=O)N3CCC2 (configuration not stated),"7.31 µM [rising, single point]",–
O=C(COc1ccccc1Cl)N1CCN(c2ccc(F)cc2)CC1,"18.4 µM [rising, single point]",–
O=S(=O)(c1ccccc1F)N1CCN(Cc2nc3ccccc3[nH]2)CC1,"18.4 µM [rising, partial curve, poor fit]",–
Oc1ccc(Br)cc1/C=N/n1c(COc2ccccc2)n[nH]c1=S,"7.08 µM [rising, partial curve, poor fit]",–
O=C(CCc1nnc(Cc2ccc3c(c2)OCO3)o1)N(CC1CCC1)CC1CCCO1 (configuration not stated),"7.08 µM [rising, partial curve]",–
O=C(/C=C/c1ccccc1Cl)c1ccccc(=O)c1O,"23.1 µM [falling, single point]",–
OC(CNCCC1C=Nc2ccccc21)Cn1c2ccc(Cl)cc2c2cc(Cl)ccc21 (configuration not stated),"29.1 µM [falling, single point]",–
CCN(CC)C(=O)[C@H]1C[C@H](CC(=O)NC/C=C(\C)CCC=C(C)C)C(=O)N2CCc3c([nH]c4cc(CCC(=O)N(C)C)ccc34)[C@]12C,"18.4 µM [falling, single point]",–
O=C(NCc1ccco1)C(c1ccccc1)N(CC1CCCO1)C(=O)Cn1nnc2ccccc21 (configuration not stated),"6.31 µM [falling, single point]",–
O=C(c1ccco1)N1N=C(c2cccs2)CC1c1ccc(F)cc1 (configuration not stated),"10.3 µM [falling, partial curve, poor fit]",–
Cn1c(SCC(=O)c2ccc(F)cc2)ncc(C(=O)Nc2ccccc2)c1=O,"5.8 µM [rising, partial curve]",–
Cc1ccc(/C=C/C(=O)c2nc3ccccc3[nH]2)cc1,–,"20 µM [falling, partial curve, poor fit]"
O=C1CN(C(=O)COC(=O)c2ccc[n+]([O-])c2)c2ccccc2N1,"10 µM [rising, partial curve]",–
Cc1ccccc1OCc1nc(-c2ccccc2)no1,"1.3 µM [rising, partial curve]",–
Cc1ccc(NC(=O)COC(=O)Cn2c(C)csc2=O)c([N+](=O)[O-])c1,"20.6 µM [rising, partial curve]",–
Cc1cccc(NC(=S)N=Nc2c(O)n(CN3CCOCC3)c3ccccc23)c1C,"8.2 µM [rising, partial curve]","3.66 µM [falling, full curve]"

# Part of the list above, bar-delimited:
SMILES | AC50 [1] | AC50 [2]
COc1ccc(C(c2c(C)[nH][nH]c2=O)c2c(C)[nH][nH]c2=O)cc1Br | 15.8 µM [falling, single point] | –
CCOC(=O)c1c(CN2CCN(C)CC2)oc2ccc(O)cc12 | 20 µM [falling, single point] | –
Cc1ccc(S(=O)(=O)N2CCCCC2)cc1NC(=O)c1cncc(Br)c1 | 0.366 µM [rising, partial curve, poor fit] | –

# Remaining list, next part:

SMILES,AC50 [1],AC50 [2]
Cc1ccc(-c2nnc(-c3ccccc3S(=O)(=O)Cc3ccc(Cl)cc3)o2)cc1,"35.5 µM [rising, single point]",–
O=C1N=C(c2ccccc2)S/C1=C\c1cccs1,"0.411 µM [falling, full curve, poor fit]",–
CN(CC(=O)Nc1ccc(Cl)cc1)C1CCCCC1,"2.51 µM [falling, full curve]",–
CNS(=O)(=O)c1cccc(C(=O)OCC(=O)Nc2ccc(-c3nc4ccc(C)cc4s3)cc2)c1,"3.16 µM [rising, partial curve, poor fit]",–
Cc1cccc(CCNC(=O)CCc2nnc(CCc3ccccc3)o2)n1,"6.31 µM [rising, partial curve, poor fit]","3.16 µM [falling, single point]"
Cn1ccnc1SCC(=O)Nc1sccc1C#N,"20 µM [rising, single point]",–
CCC(=NCCc1ccc(OC)c(OC)c1)c1ccccc1O,"0.708 µM [rising, full curve, poor fit]",–
Cc1sc2cc3c(c(C(=O)c4ccccc4)[n+]2c1C)-c1cccc2cccc-3c12,"16.4 µM [falling, partial curve]",–
Cc1c(N=Nc2c(-c3ccc([N+](=O)[O-])cc3)[nH]n(C(N)=S)c2=O)cccc1[N+](=O)[O-],"2 µM [falling, full curve, poor fit]","2.82 µM [falling, full curve]"
CN1CCc2ccccc2C1Cc1ccccc1NC(=O)c1sc2ccccc2c1Cl (configuration not stated),"12.6 µM [falling, single point]",–
C=CCn1c(SCC(=O)c2ccc(O)c(O)c2)nnc1-c1cccc(OC)c1,"5.8 µM [falling, full curve]",–
COc1ccc(C2=NOC(C(=O)NCc3ccccc3)C2)cc1 (configuration not stated),–,"2.51 µM [falling, full curve, poor fit]"
Cc1cccn2c(=O)c(/C=C(\C#N)C(N)=O)c(N3CCCCCC3)nc12,"0.1 µM [falling, full curve, poor fit]",–
Cc1ccc(-n2nnnc2/C=C\Nc2cc(C)on2)cc1,"8.2 µM [rising, partial curve, poor fit]",–
COc1ccccc1/C=C/C(=O)OCC(=O)Nc1cc(C(F)(F)F)ccc1N1CCOCC1,"18.4 µM [rising, single point]",–
COc1ccc(N2CCN(CCCNC(=O)C3(S(=O)(=O)c4ccc(Cl)cc4)CC3)CC2)cc1,"0.366 µM [falling, full curve, poor fit]","0.82 µM [rising, full curve, poor fit]"
CCC(C)/C(C)=N/NC(=O)c1ccc(CSc2nc3ccccc3s2)cc1 (configuration not stated),"8.2 µM [falling, single point]",–
O=C(Nc1nnc(-c2ccccc2)s1)c1cccc(S(=O)(=O)N2CCOCC2)c1,"1.84 µM [falling, partial curve, poor fit]",–
CCN(Cc1nc2ccccc2c(=O)[nH]1)C(=O)COc1ccccc1Cc1ccccc1,"29.1 µM [falling, single point]",–
Nc1[nH]nc2nc(-c3ccccc3)[nH]c(=O)c12,"10 µM [falling, partial curve]",–

SMILES,AC50 [1],AC50 [2]
COc1ccccc1N1CC(C(=O)NC2CCCCCC2)CC1=O (configuration not stated),"11.6 µM [falling, partial curve, poor fit]",–
Cc1ccc(N2C(=O)N(CC(=O)Nc3ccccc3C)C(=O)C2C)cc1 (configuration not stated),"25.1 µM [rising, single point]",–
CCN(C(=O)COC(=O)c1ccc2[nH]c3c(c2c1)CCCC3)C1CCS(=O)(=O)C1 (configuration not stated),"31.6 µM [falling, partial curve, poor fit]",–
CCOC(=O)C1C(=O)NC(N2CCN(c3ccccc3)CC2)=NC1c1ccccc1 (configuration not stated),"16.4 µM [rising, partial curve, poor fit]",–
CN(/N=C/c1ccc(N(C)C)cc1)C1=NS(=O)(=O)c2ccccc21,"22.4 µM [falling, single point]",–
CCOC(=O)c1[nH]c(C)c(/C(O)=C2\C(=O)C(=O)N(CCCN3CCOCC3)C2c2cccs2)c1C (configuration not stated),"31.6 µM [rising, single point]",–
Cc1nc(OCC(=O)c2ccc(Cl)cc2)c(C#N)c2c1COC(C)(C)C2,"0.0184 µM [falling, full curve, poor fit]",–
Cc1cc2c3c(c1)C(C)(c1ccccc1)CC(C)(C)N3C(=O)C21C(C#N)=C(N)OC2=C1C(=O)CC(C)(C)C2 (configuration not stated),"18.4 µM [falling, single point]","25.9 µM [rising, partial curve, poor fit]"
Cn1nc([N+](=O)[O-])nc1Sc1nnc(-c2ccccc2)o1,"1.03 µM [falling, partial curve, poor fit]","6.51 µM [falling, single point]"
Cc1[nH]c2ccccc2c1/C=N\NC(=O)CNc1ccc2c(c1)OCO2,"10.3 µM [falling, partial curve]",–
Cc1ccc(Cl)c2sc(NC(=O)C3=COCCO3)nc12,"20 µM [falling, single point]",–
CC(C)C[C@H](NC(=O)c1nc[nH]c1C(=O)N1CCC(C)CC1)C(=O)OC(C)(C)C,"35.5 µM [rising, partial curve, poor fit]",–
O=C(CSc1ncnc2sc3c(c12)CCCCC3)NCc1ccco1,"0.103 µM [rising, full curve, poor fit]","16.4 µM [falling, single point]"
COc1ccc(OC)c2sc(N(CCN(C)C)C(=O)/C=C/c3cccs3)nc12,"17.8 µM [falling, partial curve, poor fit]",–
CCn1cc(S(=O)(=O)CC(=O)Nc2ccc3c(c2)OCCO3)c2ccccc21,"15.8 µM [falling, single point]",–
O=C(OCCCN1CCCC1)C1(c2ccccc2)CCCC1,"5.17 µM [falling, single point]","4.11 µM [rising, single point]"
NS(=O)(=O)c1ccc(NC2(C(=O)O)CCCC2)cc1,"10 µM [rising, partial curve, poor fit]",–
Cc1c(/C(Cc2ccccc2)=N/O)c2ccccc2n1C,"14.6 µM [rising, partial curve, poor fit]",–
COC(=O)c1sccc1NC(=O)Nc1ccccc1OC,"11.2 µM [falling, partial curve]",–
